Test results from patent US20210355164A1.
No constants are given. Whether binding was seen depends on the method and setting. Some results given as binding are weak or reduced against the parent protein; the word gives no strength.

T1: ATF3 (activating transcription factor 3) protein (UniProt P18847)
T1 sequence (looked up): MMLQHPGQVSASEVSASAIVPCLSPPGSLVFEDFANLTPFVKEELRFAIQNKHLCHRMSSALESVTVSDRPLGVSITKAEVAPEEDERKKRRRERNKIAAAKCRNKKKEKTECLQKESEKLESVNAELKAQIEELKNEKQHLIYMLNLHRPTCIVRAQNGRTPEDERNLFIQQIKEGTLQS


Each binder was assayed against T1, ATF3 (activating transcription factor 3) protein (assay: avidin-biotin complex binding assay; plate-coated ATF3, biotin-labeled peptide 10 uM to 100 uM, absorbance at 405 nm).

Row | Binder | binding
1 | MLDTNIQSRPNL (biotin-labeled with EZ-link sulfo-NHS-biotin; position of the label not stated) [ABP2 peptide (SEQ ID NO: 2), biotin-labeled] | binds
2 | AESPLTNRGWNP (biotin-labeled with EZ-link sulfo-NHS-biotin; position of the label not stated) [ABP1 peptide (SEQ ID NO: 1), biotin-labeled] | binds

Second part, the binder after the results:

Row | binding | Binder
3 | binds | TLGLRPVPVATT (biotin-labeled with EZ-link sulfo-NHS-biotin; position of the label not stated) [ABP3 peptide (SEQ ID NO: 3), biotin-labeled]
4 | binds | VLNIPEHFTAQN (biotin-labeled with EZ-link sulfo-NHS-biotin; position of the label not stated) [ABP4 peptide (SEQ ID NO: 4), biotin-labeled]
